Experimental data: PubChem BioAssay AID1259274 (Sanger Institute, 2017)
Here is an unselected part of 794 reagents. 11 of them (1.4%) count as active. 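Calls rest on knock-down without drug only; synergy scores with anchor drugs were not used for the essential call.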 Further read-outs or replicates are left out here. Not stated in the record: the amount of reagent, the time to read-out.

Screen: 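Kinases RKO cells need to grow, alone or with anchor drugs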 (primary screen)
Cells: human RKO colorectal cancer cells
Reagents: siRNA pool against human genes
Treatment: anchor drugs BYL719 at 1 µM, cetuximab at 5 µg/ml or trametinib at 10 nM; DMSO vehicle as the no-drug arm
Measured: 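Viability of cells versus control pool 2 (non-targeting) averaged across replicates; knock-down-only robust z-score; for every anchor drug (BYL719, cetuximab, trametinib) a synergy score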
Scale: viability z-score, siRNA alone: higher = more viable cells; low values mean essential gene
Active means: 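Essential when the robust viability z-score with siRNA only falls below -3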
Calls: active = essential when knocked down alone; inactive = no change alone

NEK11 (GeneID 79858) [SID152147168] → viability z-score, siRNA alone = -0.789; Call = inactive
NME3 (GeneID 4832) [SID135621244] → viability z-score, siRNA alone = -0.512; Call = inactive
SIK2 (GeneID 23235) [SID135620885] → viability z-score, siRNA alone = 1.19; Call = inactive
CDKN2B (GeneID 1030) [SID135620642] → viability z-score, siRNA alone = -0.225; Call = inactive
CUL1 (GeneID 8454) [SID134310265] → viability z-score, siRNA alone = -0.921; Call = inactive
MYLK2 (GeneID 85366) [SID56479029] → viability z-score, siRNA alone = -1.01; Call = inactive
CAMKK1 (GeneID 84254) [SID135620905] → viability z-score, siRNA alone = -0.291; Call = inactive
TYK2 (GeneID 7297) [SID135620633] → viability z-score, siRNA alone = 1.19; Call = inactive
MAP3K19 (GeneID 80122) [SID135620896] → viability z-score, siRNA alone = -0.78; Call = inactive
CKMT1B (GeneID 1159) [SID135621236] → viability z-score, siRNA alone = 0.493; Call = inactive
BUB1B (GeneID 701) [SID152154799] → viability z-score, siRNA alone = -0.325; Call = inactive
MAP3K5 (GeneID 4217) [SID56478697] → viability z-score, siRNA alone = 0.371; Call = inactive
HK2 (GeneID 3099) [SID56479103] → viability z-score, siRNA alone = 1.19; Call = inactive
PRKAA2 (GeneID 5563) [SID152151654] → viability z-score, siRNA alone = 0.0479; Call = inactive
NTN4 (GeneID 59277) [SID152155179] → viability z-score, siRNA alone = -0.389; Call = inactive
PRKACB (GeneID 5567) [SID56478825] → viability z-score, siRNA alone = 1.19; Call = inactive
GRK5 (GeneID 2869) [SID152146923] → viability z-score, siRNA alone = 0.639; Call = inactive

Look-ups from the list.
CKMT1B (GeneID 1159) [SID135621236], Call = inactive
BUB1B (GeneID 701) [SID152154799], Call: inactive
MAP3K19 (GeneID 80122) [SID135620896], Call → inactive
Result of MAP3K5 (GeneID 4217) [SID56478697] in “viability z-score, siRNA alone”: 0.371

Additional reagents:
MST1R (GeneID 4486) [SID152152898] → viability z-score, siRNA alone = 0.772; Call = inactive
NEK5 (GeneID 341676) [SID135624240] → viability z-score, siRNA alone = 0.98; Call = inactive
FGFR1 (GeneID 2260) [SID135620619] → viability z-score, siRNA alone = 0.365; Call = inactive
CMPK1 (GeneID 51727) [SID56478766] → viability z-score, siRNA alone = -0.207; Call = inactive
EPHB1 (GeneID 2047) [SID152152600] → viability z-score, siRNA alone = 0.301; Call = inactive
PLK2 (GeneID 10769) [SID56478648] → viability z-score, siRNA alone = 1.19; Call = inactive
STK35 (GeneID 140901) [SID135620978] → viability z-score, siRNA alone = 1.13; Call = inactive
PRKAR1A (GeneID 5573) [SID135621428] → viability z-score, siRNA alone = 1.19; Call = inactive
MAST4 (GeneID 375449) [SID135625002] → viability z-score, siRNA alone = 1.19; Call = inactive
LTK (GeneID 4058) [SID135620624] → viability z-score, siRNA alone = -0.236; Call = inactive
PI4K2A (GeneID 55361) [SID135621249] → viability z-score, siRNA alone = 0.701; Call = inactive
